The source of these data is article PMC8738768.

Protein sequences, listed by entry. Tags and fused reporters are not part of them. Residues count along the entry.
UniProt P10809, residues 27-573: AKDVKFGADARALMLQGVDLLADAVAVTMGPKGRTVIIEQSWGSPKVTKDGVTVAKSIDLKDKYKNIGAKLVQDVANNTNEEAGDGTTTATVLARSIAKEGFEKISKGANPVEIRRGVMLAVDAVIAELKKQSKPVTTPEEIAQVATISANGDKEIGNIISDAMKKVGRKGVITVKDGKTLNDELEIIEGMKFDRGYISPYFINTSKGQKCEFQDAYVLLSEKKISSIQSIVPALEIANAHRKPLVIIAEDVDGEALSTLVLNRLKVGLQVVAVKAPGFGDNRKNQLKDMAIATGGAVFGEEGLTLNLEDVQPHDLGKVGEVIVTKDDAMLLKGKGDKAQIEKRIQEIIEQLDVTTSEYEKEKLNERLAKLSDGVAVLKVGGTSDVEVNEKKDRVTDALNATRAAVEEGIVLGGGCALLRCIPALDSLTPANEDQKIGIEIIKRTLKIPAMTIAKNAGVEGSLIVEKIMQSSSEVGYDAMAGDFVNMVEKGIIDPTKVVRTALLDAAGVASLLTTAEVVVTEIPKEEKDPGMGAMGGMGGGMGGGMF

The target of this assay is HSP60 (Heat shock 60 kDa protein 1) (human (endogenous in A375)) (UniProt P10809). The assay is described as follows: co-IP; cytosolic fraction of A375 cells, 500 μg of proteins with primary antibody overnight at 4 °C, Protein AG Magnetic Beads 1.5 h at RT, western blot; basal condition or 2 h after MTX with or without KIRA6 (1 μM).

No constants are given. Whether binding was seen depends on the method and setting. Binding seen in cells or lysates may run through a third protein. Some results given as binding are weak or reduced against the parent protein; the word gives no strength.

B1: IKKβ (protein, UniProt O14920 1-756)
chain: MSWSPSLTTQTCGAWEMKERLGTGGFGNVIRWHNQETGEQIAIKQCRQELSPRNRERWCLEIQIMRRLTHPNVVAARDVPEGMQNLAPNDLPLLAMEYCQGGDLRKYLNQFENCCGLREGAILTLLSDIASALRYLHENRIIHRDLKPENIVLQQGEQRLIHKIIDLGYAKELDQGSLCTSFVGTLQYLAPELLEQQKYTVTVDYWSFGTLAFECITGFRPFLPNWQPVQWHSKVRQKSEVDIVVSEDLNGTVKFSSSLPYPNNLNSVLAERLEKWLQLMLMWHPRQRGTDPTYGPNGCFKALDDILNLKLVHILNMVTGTIHTYPVTEDESLQSLKARIQQDTGIPEEDQELLQEAGLALIPDKPATQCISDGKLNEGHTLDMDLVFLFDNSKITYETQISPRPQPESVSCILQEPKRNLAFFQLRKVWGQVWHSIQTLKEDCNRLQQGQRAAMMNLLRNNSCLSKMKNSMASMSQQLKAKLDFFKTSIQIDLEKYSEQTEFGITSDKLLLAWREMEQAVELCGRENEVKLLVERMMALQTDIVDLQRSPMGRKQGGTLDDLEEQARELYRRLREKPRDQRTEGDSQEMVRLLLQAIQSFEKKVRVIYTQLSKTVVCKQKALELLPKVEEVVSLMNEDEKTVVRLQEKRQKELWNLLKIACSKVRGPVSGSPDSMNASRLSQPGQLMSQPSTASNSLPEPAKKSEELVAEAHNLCTLLENAIQDTVREQDQSFTALDWSWLQTEEEEHSCLEQAS
On to B1, for which the binding result is listed as “binds”.
